Laboratory results as given in patent US20210205441A1.
No constants are given. Whether binding was seen depends on the method and setting. Some results given as binding are weak or reduced against the parent protein; the word gives no strength.

Protein sequences, listed by entry. Tags and fused reporters are not part of them. Lines headed by an entry give the natural chain unless they say otherwise; changes in a name come on top. Residues count along the entry.
UniProt Q92956, residues 39-202: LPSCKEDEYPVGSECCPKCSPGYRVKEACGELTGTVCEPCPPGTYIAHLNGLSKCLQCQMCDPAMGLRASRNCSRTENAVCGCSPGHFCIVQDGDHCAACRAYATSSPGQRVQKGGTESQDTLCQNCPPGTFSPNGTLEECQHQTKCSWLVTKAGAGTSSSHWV

Experiments:
Assay in all cases: ELISA, HVEM on gD variants (FIG. 14)
[1] = biological target: modified gD gD1-275v5-55 (HSV-2 333 strain) (UniProt Q69467)
[2] = biological target: modified gD gD1-315v3-55 (HSV-2 333 strain) (UniProt Q69467)
[3] = biological target: modified gD gD1-315v5-55 (HSV-2 333 strain) (UniProt Q69467)
[4] = biological target: modified gD gD1-315v5-55V (HSV-2 333 strain) (UniProt Q69467)

Measured: binding

Recombinant Human HVEM/TNFRSF14 Fc Chimera Protein (R&D SYSTEMS, Inc.) (from UniProt Q92956 39-202) (Fc fusion)
binds: all assays above
